Publication PMC3900249 (Clinical pharmacology and therapeutics, 2012)

Assays:
[1] = Fraction unbound in human plasma by ultracentrifugation; format: in vitro ADME
[2] = ultracentrifugation; ref Lalloz, et al., 32; cited from earlier work
[3] = Fraction unbound in HLM by ultracentrifugation; format: in vitro ADME; conditions: human, pooled human liver microsomes, pH 7.4

fraction unbound at 2 h [1]: 0.033 ± 0.008
fraction unbound at 2 h [3]: 0.014 ± 0.002
Compound: CCCCc1oc2ccccc2c1C(=O)c1cc(I)c(OCCN(CC)CC)c(I)c1 [AMIO, Amiodarone]
fu in plasma [2]: 3.7 ± 0.6%
